Patent US5270316A, “Condensed purine derivatives” (Kyowa Hakko Kogyo Co., Ltd., priority 1989, dated 1993)
Where two headings read alike, the source gives them in different places.

Test: Diuretic activity (oral, urine collected for 6 hours)
Format: in vivo, rat (Wistar male rats)
Settings: Rattus norvegicus, 25 mg/kg oral, rats, relative value for control
Experimental: Wistar male rats weighing 150 to 300 g were used after they were fasted for 18 hours. A test compound or saline (control) was orally administered to rats and urine was collected for 6 hours. The test was performed using 3 groups per the test compound, and each group consists of 3 animals. The urine was metered by a measuring cylinder and electrolytes (Na^+ and K^+) in the urine were assayed with a flame photometer (model […] manufactured by Hitachi Ltd.). Parameters in Table 3 are all expressed by relative value for control.

NS(=O)(=O)c1cc(C(=O)O)c(NCc2ccco2)cc1Cl [Furosemide, reference compound]
response vs control in vivo at 25 mg/kg (read-out: Excretion of K+): 57% | response vs control in vivo at 25 mg/kg (read-out: Excretion of Na+): 64%
